In US20220127354A1:
Residue numbers refer to the chain shown, from its start. In names and notes the source's numbering stands. No constants are given. Whether binding was seen depends on the method and setting. Some entries that bind do so weakly or less than the wild type.

B1: anti-CDH19 antibody 2G6 (Ab ID 13588) (antibody, human IgG1, lambda, V domains shown)
VH: QVQLVESGGGVVQPGRSLRLSCAASGFTFSSYGMHWVRQAPGKGLEWVAFIWYDGSNKYYADSVKDRFTISRDNSKNTLYLQMKSLRAEDTAVYYCARRAGIIGTIGYYYGMDVWGQGTTVTVSS
VL: SYELTQPPSVSVSPGQTASITCSGDRLGEKYTCWYQQRPGQSPLLVIYQDTKRPSGIPERFSGSNSGNTATLTISGTQAMDEADYYCQAWDSSTVVFGGGTKLTVLG
B2: hu anti-<huCDH19> 23A10.3 (1-474)(L92Q) VH::huIgG1z + 23A10.3 (1-231)(C42S) VL::huLLC-C2 (Ab ID 14077) (antibody, V domains shown)
VH: B1 VH with S31R, M34I, F50V, D66G, K84N, T91S, I103P, I106T
VL: B1 VL with T32V, C33S, R38K, L44I, T51N, R53W

Target: caCDH19(1-42)::FLAG::caCDH19(43-770) (construct Q, Ca EC1-5) (dog)
Experiment: flow cytometry, transfected 293T cells, 2 mM CaCl2

Row | Binder | binding
1 | B1 | binds
2 | B2 | binds
